Primary screen of a compound library

Values are the deposited “Percent Effect”, in %.
The record does not define 0% and 100%; most values in the screen are far below 50% and negative numbers occur (in some assays of this library far below -100).
This is an unselected part of the compounds tested.
Two or more numbers in one place are separate tests of the same structure; such repeats can differ widely.

Mtb cholesterol medium: 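Whole-cell growth test on Mycobacterium tuberculosis, read after 4 days in a medium based on cholesterol and the lipid DPPC; the read-out is not stated. Compounds at 50 µM. Direction is inferred from retests: higher values go with more growth inhibition. Of about 69,000 compounds tested this way, about 370 (0.54%) reached 50% or more in at least one test.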
Mtb glucose medium: 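Growth of Mycobacterium tuberculosis over 3 days (7H9 medium with glucose and tyloxapol); the read-out is not stated. Concentration: 50 µM. Direction is inferred from retests: higher values go with more growth inhibition. Size under these conditions: about 69,000 compounds, about 760 of them at 50% or above in at least one test.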

| compound | Mtb cholesterol medium | Mtb glucose medium |
|---|---|---|
| `COCCN1CCC(CN(Cc2ccncc2)C2CCCCC2)CC1` | 5.729% | 2.523% |
| `O=c1ccc2c(n1Cc1cccnc1)CCC(NCc1cccnc1)C2` (stereo not shown) | -0.5432% | -39.04% and 7.504% |
| `Cc1cc(C)n(C2CN(Cc3ccccn3)C2)n1` | -17.58% | -6.328% |
| `CN1CCN(C(=O)c2ncn3c2CN(C)S(=O)(=O)c2ccccc2-3)CC1.O=C(O)C(F)(F)F` | 7.127% | -18.54% |
| `Cc1ccc(C)c2c(C)c(C(=O)NCCC(=O)N3CCOCC3)oc12` | -7.648% | 7.73% |
| `Fc1ccc(-c2n[nH]cc2CNCCn2cccn2)cc1` | 0.4052% | 1.212% |
| `Cc1nn(C)c(N(C)C)c1CNCc1cccc(Cn2cncn2)c1` | -8.273% | -1.302% |
| `O=c1[nH]c2nc(N3CCSCC3)ncc2c(=O)n1-c1ccc(F)cc1` | -2.21% | 16.38% |
| `O=C(CCc1nc(C2CC2)no1)c1ccc(F)c(F)c1` | 20.14% | 5.474% |
| `CCc1nc(C)c([C@H]2CN(C)C[C@@H]2C(=O)NCc2ccccc2OC)[nH]1` | -9.986% | 5.577% |
| `COCCN1CCCN(C(=O)c2oc(C)nc2C)CC1` | -11.66% | 7.633% |
| `CCc1noc(CCC(=O)N[C@@H]2CC[C@@H](n3ccnc3)[C@@H]2O)n1` | -13.74% | -23.25% |
| `CCC(Nc1ncccn1)c1ccc(OC)cc1` (stereo not shown) | -1.271% | 2.105% and 9.017% |
| `NC(=O)c1cc(-n2cc(-c3cccc(C(=O)O)c3)cn2)cs1` | 9.698% | -8.94% |
| `CCn1cc(CNCC(c2ccc(Cl)cc2)n2cccn2)cn1` (stereo not shown) | -8.808% | 18.28% and 9.915% |
| `Cc1nc(N2CCCC2)nc2c1CCN(Cc1nccn1C)CC2.O=C(O)C(F)(F)F` | -3.975% | 18.06% |
| `COc1cccc2c1N(CC(=O)Nc1ccc(Cl)cn1)CCC2` | 21.1% and -4.032% | 27.71% |
| `Cc1noc(C)c1CN1CCn2cc(CN3CCOCC3)nc2C1` | -3.784% | 7.815% |
| `CNc1cc(-c2nc(CCN3CCCC3=O)no2)ccn1` | -4.679% and -11.98% | -12.13% |
| `Cc1ccc(CNC(=O)N2CCN(S(C)(=O)=O)CC2)n1C` | 7.335% | 8.073% |
| `CO[C@H]1CCN(S(=O)(=O)c2cn(C)cn2)[C@H]1Cc1cccnc1.O=C(O)C(F)(F)F.O=C(O)C(F)(F)F` | 12.83% | 12.9% |
| `Cc1ccc(-c2noc(C(O)CC(C)C)n2)nn1` (stereo not shown) | -7.798% and -0.3683% | 0.6757% |
| `O=S(=O)(N1CCOCC1)N1CCc2sccc2C1` | 0.3305% | 3.766% |
| `c1ccc(-c2cnc(CN3CCCC3Cn3cccn3)o2)cc1` (stereo not shown) | 3.193% | 21.89% |
| `O=C(O)C(F)(F)F.O=C(O)C(F)(F)F.O=C1NC2(CCN(Cc3ccsc3)CC2)CC1c1ccncc1` (stereo not shown) | -9.861% | 4.914% |
| `CCN(CC(F)(F)F)C(=O)C1CCCN(Cc2cscn2)C1` (stereo not shown) | -19.05% | -27.82% |
| `CC(C)n1nnc2c(sc3nc(N4CCOCC4)c4c(c32)CCC4)c1=O` | -8.606% | 9.669% |
| `Cc1ccc(F)c(N2CCCC(Nc3nccn4cnnc34)C2=O)c1` (stereo not shown) | 24.97% | -19.52% |
| `Cc1cc(C)n(CC2CCCN2C(=O)c2cccc3c2OCCO3)n1` (stereo not shown) | 8.911% | -5.573% |
| `CCOCCc1nc(-c2cnn3c(C)cc(C)nc23)no1` | -6.862% | -14.97% |
| `O=C(c1cccc(OCc2cscn2)c1)N1CCOCC1` | -11.21% | -9.087% |
| `CC(C)C(=O)N1CCN(S(=O)(=O)C2CC2)CC2(CC(=O)N(C)C2)C1` (stereo not shown) | 7.629% | 4.23% |
| `CC(=O)c1cccc(OCC(=O)NS(=O)(=O)c2ccc(Br)s2)c1` | 2.572% | -3.216% |
| `CCC[C@@H]1CN(S(=O)(=O)c2ccc3[nH]c(=O)[nH]c3c2)C[C@H]1NC(C)=O` | -14.17% | -17.81% and -6.306% |
| `c1ccc(-n2ccc(CN3CCOC(Cn4cncn4)C3)n2)cc1` (stereo not shown) | -12.81% | -0.5809% |
| `O=C1COc2cc(C(=O)N3CCCC(n4ccnc4)C3)ccc2N1` (stereo not shown) | 7.354% | -8.29% |
| `Cc1cnn(CCCNC(=O)N2CCCCC(N3CCCC3)C2)c1` (stereo not shown) | -18.27% | -27.15% |
| `CN(C)CC(C)(C)Cn1cnc(-c2ccccc2)c1-c1cccc(O)c1` | -6.842% | 25.84% and 1.432% |
| `Cc1cccnc1NC(=O)C1CSc2ncc(C)c(=O)n2C1` (stereo not shown) | -3.357% | 16.05% |
| `CN1CCN(C2CCN(CCOc3ccccc3F)CC2)C1=O` | -1.083% | 27.57% |
| `CCn1cc(NC(=O)NCC(C)O)cn1` (stereo not shown) | -7.218% | -5.995% |
| `Cn1cnnc1C1CCCN(C(=O)NCc2ccccc2)C1` (stereo not shown) | -5.447% | -17.88% |
| `O=C(c1ccc2c(c1)CCCC2)N1CCCC(n2cncn2)C1` (stereo not shown) | 5.572% | 8.88% |
| `CCn1ccnc1CN1CCN(CCOc2ccccc2C#N)CC1` | -14.35% | 29.64% |
| `CC(NC(=O)C1CCN(C(=O)C2CC2)CC1)c1nncn1C(C)C` (stereo not shown) | -14.62% | -11.31% |
| `CCN1CC(CN(C)Cc2nc(-c3ccc(C)o3)oc2C)CC1=O` (stereo not shown) | 2.463% | 34.38% |
| `COc1ccc(Oc2ncccc2C(F)(F)F)cc1CN1CCCC1` | -2.26% | -22.17% and 19.49% |
| `Cc1noc(C(C)N2CCN(CCn3ccccc3=O)CC2)n1` (stereo not shown) | -1.012% | -21.09% |
| `O=C(O)C(F)(F)F.O=C(c1cscn1)N1CCc2ncc(CN3CCCC3)n2CC1` | -18.39% | 10.79% |
| `Cc1noc(C)c1CNc1ccc2nc(C3CC3)sc2c1` | 16.44% | 15.68% and 11.84% |
| `[H][C@]12CC[C@]([H])(CN(C3Cc4ccccc4C3)C1)N(Cc1nc(CC)no1)C2` | 3.341% | 8.062% |
| `O=S(=O)(CCC1CCCO1)NCc1ncc(-c2ccccc2)o1` (stereo not shown) | 0.03496% | -2.469% |
| `Cc1noc(-c2ccnc(Oc3ccc(CN4CCCC4)cc3F)c2)n1` | 21.54% | 23.99% |
| `Cc1ccc(NC2(C(=O)NCCCc3c(C)n[nH]c3C)CCCC2)cc1` | -14.74% and -13.94% | -15.19% |
| `O=C(O)C(F)(F)F.O=C(O)C(F)(F)F.[H][C@@]12CCN(Cc3cccc(C)n3)[C@]1([H])CC[C@@H](C(=O)Nc1cnccn1)O2` | 1.952% | -20.58% |
| `O=C(O)C(F)(F)F.[H][C@@]12CCCO[C@]1([H])[C@H](N(CC)CC)CN2C(=O)c1ccc(C#N)cc1` | 17.08% | 1.383% and 11.72% |
| `Cc1ccccc1S(=O)(=O)NC(=O)CSc1ccc2c(c1)OCCO2` | -11.74% | -0.7183% and -12.91% |
| `CN1CCC2(CC1)CCN(C(=O)c1onc3ccccc13)C2` | 5.744% | 6.409% |
| `O=C(CC1COCCN1)N1CCC2(CCc3ccccc32)CC1` (stereo not shown) | -5.607% | -14.46% |
| `CCc1cc(N(C)Cc2nonc2C)nc(N(C)C)n1` | 6.206% | 7.519% |
| `Cc1ncc2c(n1)CN(CCOCC(F)(F)F)CC2` | 10.73% | -4.02% |
| `N#Cc1ccc(OCC(O)CN2CCC(c3ccn[nH]3)CC2)cc1` (stereo not shown) | -17.8% | -3.912% |

Repeated from the top, 4 entries:

* COCCN1CCC(CN(Cc2ccncc2)C2CCCCC2)CC1 : Mtb cholesterol medium: 5.729%; Mtb glucose medium: 2.523%
* O=c1ccc2c(n1Cc1cccnc1)CCC(NCc1cccnc1)C2 (stereo not shown) : Mtb cholesterol medium: -0.5432%; Mtb glucose medium: -39.04% and 7.504%
* Cc1cc(C)n(C2CN(Cc3ccccn3)C2)n1 : Mtb cholesterol medium: -17.58%; Mtb glucose medium: -6.328%
* CN1CCN(C(=O)c2ncn3c2CN(C)S(=O)(=O)c2ccccc2-3)CC1.O=C(O)C(F)(F)F : Mtb cholesterol medium: 7.127%; Mtb glucose medium: -18.54%

Data taken from ChEMBL document CHEMBL3988442, “University of Dundee, Small-Polar-MMV Screening Library” (2021).